PubChem BioAssay AID1259329 | Drosophila RNAi Screening Center, 2017
Screen: 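Water reference run beside parallel screens of metal toxicity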. Cell system: Drosophila S2R+ cells. Knock-down reagent: long dsRNA against Drosophila genes. Timing: 5 days (4 days knock-down, then 1 day after water). Treatment: water added as vehicle control, no metal, one day before read-out. Measured: 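After 4 days of knock-down, water was added with no metal, and total ATP was read by luciferase light a day later on two plate copies, as mean z-score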. Scale: mean ATP z-score: higher = more total ATP, likely more viable cells. Rule for the call: 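Active means the absolute value of the z-score is over 1.5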.
In all, the deposit lists 418 reagents; this is an unselected part. Over the whole deposit, 20 (4.8%) were called active. 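All active calls have high ATP; no reagent fell below -1.5.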 No sequences are given here. Not given: the amount of reagent, the dose of the treatment.

gene | dsRNA | mean ATP z-score | call
Daao2 (D-amino acid oxidase 2) | DRSC02135 | -0.00738 | inactive
CG9577 | DRSC20693 | 0.52 | inactive
CG9577 | DRSC27691 | -0.0584 | inactive
ACC (Acetyl-CoA carboxylase) | DRSC07249 | 1.6 | active
ACC (Acetyl-CoA carboxylase) | DRSC30763 | -0.608 | inactive
ACC (Acetyl-CoA carboxylase) | DRSC30764 | -0.633 | inactive
cm (carmine) | DRSC41297 | 0.928 | inactive
Pex10 (Peroxin 10) | DRSC22021 | 0.269 | inactive
Pex10 (Peroxin 10) | DRSC38320 | 0.417 | inactive
Rgk1 (Rad, Gem/Kir family member 1) | DRSC05785 | 0.116 | inactive
Rgk1 (Rad, Gem/Kir family member 1) | DRSC23535 | 0.687 | inactive
Rgk1 (Rad, Gem/Kir family member 1) | DRSC37293 | 0.535 | inactive
VhaM9.7-b (Vacuolar H[+] ATPase M9.7 subunit b) | DRSC11841 | 1.17 | inactive
VhaM9.7-b (Vacuolar H[+] ATPase M9.7 subunit b) | DRSC40199 | -0.438 | inactive
Npc2a (Niemann-Pick type C-2a) | DRSC00698 | 0.135 | inactive
Vha36-2 (Vacuolar H[+] ATPase 36kD subunit 2) | DRSC06294 | -0.537 | inactive
Vha36-2 (Vacuolar H[+] ATPase 36kD subunit 2) | DRSC29238 | 0.685 | inactive
Gbp2 (Growth-blocking peptide 2) | DRSC06069 | 1.1 | inactive
ClC-a (Chloride channel-a) | DRSC14947 | 0.275 | inactive
ClC-a (Chloride channel-a) | DRSC14948 | 0.866 | inactive
ClC-a (Chloride channel-a) | DRSC16142 | -0.314 | inactive
mei-9 (meiotic 9) | DRSC18792 | 0.224 | inactive
Pex1 (Peroxin 1) | DRSC11358 | -0.234 | inactive
CG3376 | DRSC04362 | 0.264 | inactive
CG3376 | DRSC26489 | 1.87 | active
CG31926 | DRSC00295 | 0.0798 | inactive
CG31926 | DRSC29022 | 0.155 | inactive
AP-1-2beta (Adaptor Protein complex 1/2, beta subunit) | DRSC19336 | -1.4 | inactive
AP-1-2beta (Adaptor Protein complex 1/2, beta subunit) | DRSC23868 | -0.787 | inactive
AP-1-2beta (Adaptor Protein complex 1/2, beta subunit) | DRSC31080 | 0.264 | inactive
Vps33B (Vacuolar protein sorting 33B) | DRSC15722 | 0.0499 | inactive
Vps33B (Vacuolar protein sorting 33B) | DRSC35357 | 0.209 | inactive
Naglu (N-acetyl-alpha-glucosaminidase) | DRSC02267 | 0.0457 | inactive
Naglu (N-acetyl-alpha-glucosaminidase) | DRSC33899 | -0.775 | inactive
CG5731 | DRSC02883 | 0.185 | inactive
CG5731 | DRSC25969 | -0.0728 | inactive
CG5731 | DRSC37705 | 0.132 | inactive
Xpd (Xeroderma pigmentosum D) | DRSC27757 | 0.872 | inactive
Xpd (Xeroderma pigmentosum D) | DRSC36088 | 1.37 | inactive
Xpd (Xeroderma pigmentosum D) | DRSC41045 | -0.353 | inactive
Pex3 (Peroxin 3) | DRSC10731 | 1.14 | inactive
Pex3 (Peroxin 3) | DRSC40003 | 1.56 | active
LManII (Lysosomal alpha-mannosidase II) | DRSC01986 | -0.483 | inactive
CG4860 | DRSC21755 | -0.204 | inactive
Vha16-1 (Vacuolar H[+] ATPase 16kD subunit 1) | DRSC05020 | 0.487 | inactive
Vha16-1 (Vacuolar H[+] ATPase 16kD subunit 1) | DRSC32228 | -0.549 | inactive
Vha16-1 (Vacuolar H[+] ATPase 16kD subunit 1) | DRSC32229 | -0.63 | inactive
ACOX1 (acyl-CoA oxidase 1) | DRSC05941 | 1.02 | inactive
ACOX1 (acyl-CoA oxidase 1) | DRSC24604 | -1.16 | inactive
Hexo1 (Hexosaminidase 1) | DRSC08663 | 0.456 | inactive
Cat (Catalase) | DRSC11110 | -0.232 | inactive
Cat (Catalase) | DRSC24077 | -0.575 | inactive
Cat (Catalase) | DRSC38942 | -0.132 | inactive
CG31661 | DRSC00296 | 0.886 | inactive
CG31661 | DRSC28732 | -0.296 | inactive
Ppt1 (Palmitoyl-protein thioesterase 1) | DRSC17806 | 0.464 | inactive
LManI (Lysosomal alpha-mannosidase I) | DRSC24754 | -0.469 | inactive
LManI (Lysosomal alpha-mannosidase I) | DRSC39016 | 0.24 | inactive
LManI (Lysosomal alpha-mannosidase I) | DRSC41065 | -0.407 | inactive
Pex11c (Peroxin 11c) | DRSC14677 | 0.188 | inactive
CG5065 | DRSC06912 | -0.268 | inactive
CatB (Catalase B) | DRSC03194 | 0.972 | inactive
CatB (Catalase B) | DRSC24516 | -0.217 | inactive
CatB (Catalase B) | DRSC38069 | -0.247 | inactive
Coprox (Coproporphyrinogen oxidase) | DRSC01996 | -0.0188 | inactive
Coprox (Coproporphyrinogen oxidase) | DRSC28744 | 0.307 | inactive
Abcd1 (ATP binding cassette subfamily D member 1) | DRSC17157 | 1.92 | active
Abcd1 (ATP binding cassette subfamily D member 1) | DRSC39677 | -0.506 | inactive
Sod1 (Superoxide dismutase 1) | DRSC11286 | -0.185 | inactive
Sod1 (Superoxide dismutase 1) | DRSC34593 | 0.38 | inactive
Sod1 (Superoxide dismutase 1) | DRSC40766 | -0.781 | inactive
wat (waterproof) | DRSC14854 | 0.152 | inactive
wat (waterproof) | DRSC34735 | -0.855 | inactive
CG13084 | DRSC02188 | -0.566 | inactive
Vps13 (Vacuolar protein sorting 13) | DRSC06817 | -0.253 | inactive
Vps13 (Vacuolar protein sorting 13) | DRSC29275 | 1.72 | active
Vps13 (Vacuolar protein sorting 13) | DRSC35042 | -0.538 | inactive
Vha36-1 (Vacuolar H[+] ATPase 36kD subunit 1) | DRSC07098 | 1.49 | inactive
Vha36-1 (Vacuolar H[+] ATPase 36kD subunit 1) | DRSC25624 | -0.079 | inactive
Mpcp2 | DRSC11226 | 0.0492 | inactive
Mpcp2 | DRSC41005 | -0.255 | inactive
Pex13 (Peroxin 13) | DRSC06877 | 1.06 | inactive
Pex13 (Peroxin 13) | DRSC40208 | 0.871 | inactive
Pex13 (Peroxin 13) | DRSC40344 | 0.314 | inactive
Mvl (Malvolio) | DRSC16752 | 0.198 | inactive
Mvl (Malvolio) | DRSC39671 | 0.53 | inactive
Mvl (Malvolio) | DRSC40923 | 0.274 | inactive
Sod2 (Superoxide dismutase 2 (Mn)) | DRSC07554 | 0.649 | inactive
Sod2 (Superoxide dismutase 2 (Mn)) | DRSC27050 | 0.046 | inactive
Ctns (Cystinosin) | DRSC15175 | 0.89 | inactive
Ctns (Cystinosin) | DRSC33258 | -0.71 | inactive
Ctns (Cystinosin) | DRSC39640 | 0.314 | inactive
Sap-r (Saposin-related) | DRSC21916 | -0.299 | inactive
Sap-r (Saposin-related) | DRSC27246 | 0.534 | inactive
Npc1b (Niemann-Pick type C-1b) | DRSC20488 | -0.409 | inactive
Npc1b (Niemann-Pick type C-1b) | DRSC36136 | -0.711 | inactive
Npc1b (Niemann-Pick type C-1b) | DRSC39575 | 1.12 | inactive
CG12268 | DRSC14491 | 0.2 | inactive
CG12268 | DRSC28755 | -0.0879 | inactive
CG3961 | DRSC10390 | 1.7 | active
CG3961 | DRSC10391 | 1.38 | inactive
CG3961 | DRSC35309 | 0.573 | inactive
CtsF (Cathepsin F) | DRSC12056 | -1.12 | inactive
CtsF (Cathepsin F) | DRSC12195 | 1.04 | inactive
CtsF (Cathepsin F) | DRSC12196 | 0.091 | inactive
CtsL1 (Cathepsin L1) | DRSC05462 | 0.364 | inactive
CtsL1 (Cathepsin L1) | DRSC07363 | -0.292 | inactive
CtsL1 (Cathepsin L1) | DRSC29071 | -1.2 | inactive
Npc2g (Niemann-Pick type C-2g) | DRSC14296 | -0.33 | inactive
Hmgcl (3-Hydroxymethyl-3-methylglutaryl-CoA lyase) | DRSC02051 | -0.678 | inactive

Active calls, of those listed so far:
gene | dsRNA | mean ATP z-score | call
ACC (Acetyl-CoA carboxylase) | DRSC07249 | 1.6 | active
CG3376 | DRSC26489 | 1.87 | active
Pex3 (Peroxin 3) | DRSC40003 | 1.56 | active
Abcd1 (ATP binding cassette subfamily D member 1) | DRSC17157 | 1.92 | active
Vps13 (Vacuolar protein sorting 13) | DRSC29275 | 1.72 | active
CG3961 | DRSC10390 | 1.7 | active
